PubChem BioAssay AID1259425 – University of Nebraska Medical Center, 2018
Purpose: 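Compare each knockdown with KSR1 silencing using changes in marker transcripts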 (primary screen). System: HCT116 human colon cancer cells. Reagent: siRNA pool against human genes, 50 nM siRNA. Measurement: 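mRNA of six signature genes measured together by branched-DNA assay after 50 nM siRNA pool, blank removed, divided by geometric mean of two housekeeping genes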. Scale: BNIP3L mRNA: higher = more BNIP3L transcript after knockdown; NDRG1 mRNA: higher = more NDRG1 transcript after knockdown.
In all, the deposit lists about 14,000 reagents; this is a part drawn at random. The numbers tell different reagents against one gene apart. Not all columns of the deposit are shown. Reagent sequences are not shown. The record does not give: the time to read-out.

no.	Gene	reagent no.	BNIP3L mRNA, set 1	NDRG1 mRNA, set 1
1	HECA	1	0.0707	0.0998
2	TSPAN17	1	0.117	0.148
3	CD74	1	0.0764	0.106
4	IQSEC2	1	0.113	0.152
5	TEF	1	0.0874	0.241
6	RPL21	1	0.546	0.481
7	PCDHA2	1	0.105	0.22
8	PPEF2	1	0.0725	0.531
9	HLA-DPA1	1	0.0579	0.163
10	DCTN6	1	0.0826	0.221
11	DPP4	1	0.076	0.15
12	CTNNA3	1	0.0828	0.157
13	MUL1	1	0.166	0.24
14	HLCS	1	0.148	0.318
15	CD55	1	0.0825	0.135
16	PAK4	1	0.0841	0.148
17	LGALS3	1	0.141	0.186
18	LGALS3	2	0.104	0.331
19	QDPR	1	0.137	0.11
20	DBF4	1	0.197	0.183
21	CABP2	1	0.159	0.194
22	PCDHGA8	1	0.0932	0.525
23	ACLY	1	0.0501	0.115
24	CACNG5	1	0.0887	0.0626
25	CLUH	1	0.18	0.219
26	FKBPL	1	0.155	0.374
27	NICN1	1	0.219	0.27
28	CCNC	1	0.104	0.108
29	SLC35G5	1	0.395	0.195
30	PDE4A	1	0.0803	0.329
31	CD68	1	0.103	0.199
32	HIGD1A	1	0.118	0.201
33	PROK2	1	0.0701	0.0352
34	FGFBP1	1	0.103	0.0915
35	CYTIP	1	0.176	0.262
36	ESYT3	1	0.446	0.163
37	EVX1	1	0.184	0.215
38	TOB1	1	0.0481	0.0477

Copied from above, 4 entries:
no.	Gene	reagent no.	BNIP3L mRNA, set 1	NDRG1 mRNA, set 1
34	FGFBP1	1	0.103	0.0915
35	CYTIP	1	0.176	0.262
36	ESYT3	1	0.446	0.163
37	EVX1	1	0.184	0.215

The list goes on.
no.	Gene	reagent no.	BNIP3L mRNA, set 1	NDRG1 mRNA, set 1
39	WRNIP1	1	0.104	0.117
40	PNLIPRP1	1	0.112	0.181
41	MFSD2A	1	0.191	0.207
42	MCC	1	0.0639	0.0949
43	LINC00869	1	0.184	0.495
44	NOL8	1	0.275	0.276
45	TUBA8	1	0.0488	0.16
46	DDX54	1	0.163	0.142
47	BDH1	1	0.132	0.126
48	ZNF256	1	0.0916	0.135
49	ANXA1	1	0.0592	0.112
50	EIF5	1	0.0397	0.0937
51	GNL2	1	0.237	1.17
52	ARFRP1	1	0.0556	0.19
53	CHMP5	1	0.107	0.39
54	TMOD2	1	0.0941	0.119
55	RBBP7	1	0.0859	0.151
56	SRRM4	1	0.499	0.366
57	PSME3	1	0.105	0.429
58	RPRD1A	1	0.0491	0.155
59	PDE6A	1	0.06	0.127
60	SKP2	1	0.0489	0.602
61	NUCLEOLIN	1	0.162	0.62
62	RHCG	1	0.117	0.26
63	RNASE6	1	0.0737	0.251
